Experimental data taken from EP1878743A2, “Urotensin-II agonists and antagonists” (The Administrators of The Tulane Educational Fund, priority 2000, dated 2002).
These are yes or no findings as the source states them, for the method shown. Some binding calls cover weakened binding; strength is not graded here. Bridge positions count the residues as written; N and C are the ends. Ends that are not written are not given here.

Molecular target: T1, U-II receptors (rat thoracic aorta tissue) (rat) (UniProt P49684)
T1 sequence (looked up): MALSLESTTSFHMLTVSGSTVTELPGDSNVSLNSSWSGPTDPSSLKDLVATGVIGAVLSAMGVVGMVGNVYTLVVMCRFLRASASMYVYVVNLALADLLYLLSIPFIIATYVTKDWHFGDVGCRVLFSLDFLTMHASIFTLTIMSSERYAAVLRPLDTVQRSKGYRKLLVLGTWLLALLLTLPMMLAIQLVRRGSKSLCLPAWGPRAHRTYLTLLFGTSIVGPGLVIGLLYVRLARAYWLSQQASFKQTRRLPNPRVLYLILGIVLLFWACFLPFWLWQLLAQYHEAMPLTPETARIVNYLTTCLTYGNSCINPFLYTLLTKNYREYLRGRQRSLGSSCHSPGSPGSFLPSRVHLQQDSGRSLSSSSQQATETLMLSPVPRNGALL
Assay: binding to rat aorta tissue; method not described

binding: binds
B1: Asp-c[Cys-Phe-Trp-Lys-Tyr-Cys]-Val-OH (SEQ ID NO: 3) (peptide)
peptide: DCFWKYCV
modifications: cyclic c[Cys-...-Cys] between Cys 2 and Cys 7; C-terminal -OH (free acid)
